Columns and labels:
[1] = 2 g tyrosine: exhaled breath VOCs by SIFT-MS in oesophageal cancer, gastric cancer and controls; settings: for Baseline Concentration, Control / Baseline Concentration, Gastric Cancer / Baseline Concentration, Oesophageal Cancer: Median; for Baseline Concentration, Control: controls n=6, before 2 g tyrosine; for Baseline Concentration, Gastric Cancer / Baseline Concentration, Oesophageal Cancer: n=6, before 2 g tyrosine; for Increase/decrease: after 2 g tyrosine consumption
[2] = Combined amino acid drink (tyrosine, phenylalanine, glutamic acid): exhaled breath VOCs by SIFT-MS in cancer and controls; format: in vivo, human; settings: for Oesophagogastric Cancer: Post-amino acids Concentration: median, exhaled breath, oesophagogastric cancer group; for baseline concentration, cancer group: before combined amino acid drink
[3] = Glucose versus combined glucose and citric acid: exhaled breath VOCs by SIFT-MS in healthy controls; format: in vivo, human; settings: median; for Control 1 (glucose only): Baseline Concentration / Control 2 (glucose + citric acid): Baseline Concentration / Control 2 (glucose + citric acid): Post-drink Concentration / Control 1 (glucose only): Post-drink Concentration: exhaled breath; for Control 1 (glucose only): Baseline Concentration: control group 1 (n=6); for Control 1 (glucose only): Baseline Concentration / Control 2 (glucose + citric acid): Baseline Concentration: before drink; for Control 2 (glucose + citric acid): Baseline Concentration: control group 2 (n=6)
[4] = Glucose dose study: exhaled breath VOCs by SIFT-MS in healthy subjects; format: in vivo, human; settings: for Fold change, 10 g: 5-15 minutes after 10 g glucose; for Fold change, 25 g: 5-15 minutes after 25 g glucose; for Fold change, 50 g: 5-15 minutes after 50 g glucose; for Fold change, 75 g: 5-15 minutes after 75 g glucose; for Fold change, Baseline: 5-15 minutes, baseline 0 g glucose
[5] = Comparison of 4 sugars at 25 g: butanoic acid in exhaled breath by SIFT-MS; format: in vivo, human; settings: 25 g sugar per 100 ml
[6] = time point 30 mins after combined amino acid drink
[7] = 30 minutes after combined amino acid drink
[8] = after combined amino acid drink
[9] = 40 minutes after combined amino acid drink
[10] = after combined amino acid drink, time not stated

SMILES | Baseline Concentration, Control [1] [ppbv] | Baseline Concentration, Gastric Cancer [1] [ppbv] | Baseline Concentration, Oesophageal Cancer [1] [ppbv] | Oesophagogastric Cancer: Post-amino acids Concentration [2, 6] [ppbv] | Control 1 (glucose only): Baseline Concentration [3] [ppbv] | Control 2 (glucose + citric acid): Baseline Concentration [3] [ppbv] | Control 2 (glucose + citric acid): Post-drink Concentration ([3]; time point 5 mins) [ppbv] | Control 1 (glucose only): Post-drink Concentration ([3]; time point 5 mins) [ppbv] | Control 2 (glucose + citric acid): Fold change ([3]; 5 mins vs baseline) | Control 1 (glucose only): Fold change ([3]; 5 mins vs baseline) | Increase/decrease [1] | further results
CCc1ccc(O)cc1 [1-hydroxy-4-ethylbenzene] | 0.59 | 0.32 | 0.59 | 0.45 |  |  |  |  |  |  |  | 
CC=O [Acetaldehyde] | 40.93 | 29.43 | 22.73 | 19.80 | 16.02 | 19.72 | 21.09 | 15.25 | 0.94 | 1.04 |  | 
CCCC=O [Butanal] | 5.45 | 5.16 | 4.57 | 2.42 | 2.46 | 2.82 | 2.37 | 2.21 | 0.87 | 1.03 | ↑ | 
CCCCCCCCCC=O [Decanal] | 2.04 | 1.14 | 1.08 | 0.83 | 0.66 | 0.87 | 0.77 | 0.59 | 1.13 | 0.97 | ↑ | concentration at 30 minutes, cancer group [2, 7]: 0.83 ppbv; fold increase, cancer group [2, 7]: 1.41; fold increase, control group [2, 7]: 1.05; time of optimal response / significant increase in the cancer group [2, 8]: 30 min; baseline concentration, cancer group [2]: 0.69 ppbv
CCCCCCCCCC [Decane] | 5.59 | 3.3 | 3.27 | 4.78 |  |  |  |  |  |  | ↑ | fold increase, cancer group [2, 7]: 1.44
CCCCCCC=O [Heptanal] | 1.46 | 0.95 | 0.70 | 0.94 | 0.60 | 1.80 | 1.22 | 0.53 | 0.77 | 0.86 | ↑ | 
CCCCCC=O [Hexanal] | 9.23 | 4.73 | 4.55 | 3.42 | 2.71 | 4.04 | 4.86 | 3.09 | 1.07 | 1.06 | ↑ | 
CCCCCCCCC=O [Nonanal] | 3.99 | 2.38 | 2.34 | 2.55 | 1.07 | 2.30 | 2.49 | 1.56 | 1.08 | 1.23 |  | 
CCCCCCCC=O [Octanal] | 1.38 | 1.08 | 0.91 | 0.59 | 0.43 | 1.43 | 1.12 | 0.58 | 0.81 | 1.40 |  | 
Cc1ccc(O)cc1 [P-cresol] | 1.24 | 1.72 | 0.92 |  |  |  |  |  |  |  | ↑ | change in the control group [2, 9]: No change; concentration at 40 minutes, cancer group [2, 9]: 1.25 ppbv; fold increase, cancer group [2, 9]: 1.37 fold; time of optimal response / significant increase in the cancer group [2, 8]: 40 min; baseline concentration, cancer group [2]: 0.93 ppbv; Oesophagogastric Cancer: Post-amino acids Concentration ([2]; time point 40 mins after combined amino acid drink): 1.25 ppbv
CCCCC=O [Pentanal] | 2.26 | 2.63 | 1.66 | 1.14 | 1.17 | 1.32 | 1.43 | 1.05 | 0.89 | 1.00 |  | 
CCCCC(=O)O [Pentanoic acid] | 4.86 | 3.76 | 3.78 | 1.53 | 2.45 | 3.11 | 2.65 | 2.38 | 0.99 | 0.73 |  | Fold change, 10 g ([4]; Average of all subjects): 1.2; Fold change, 25 g ([4]; Average of all subjects): 1.1; Fold change, 50 g ([4]; Average of all subjects): 1.4; Fold change, 75 g ([4]; Average of all subjects): 1.4; Fold change, Baseline ([4]; Average of all subjects): 0.9; Fold change, 10 g ([4]; Median of all subjects): 1.1; Fold change, 25 g ([4]; Median of all subjects): 1.0; Fold change, 50 g ([4]; Median of all subjects): 1.4; Fold change, 75 g ([4]; Median of all subjects): 1.3; Fold change, Baseline ([4]; Median of all subjects): 0.9
Oc1ccccc1 [Phenol] | 9.01 | 5.41 | 4.65 | 2.27 |  |  |  |  |  |  | ↑ | fold increase, cancer group [2, 10]: 1.79 fold; fold increase, non-cancer group [2, 10]: 1.83 fold
CCC=O [Propanal] | 17.98 | 11.70 | 8.52 | 8.78 | 9.67 | 6.96 |  |  |  |  |  | Control 2 (glucose + citric acid): Post-drink Concentration ([3]; time point 10-15 mins): 9.41 ppbv; Control 1 (glucose only): Post-drink Concentration ([3]; time point 10-15 mins): 9.29 ppbv; Control 2 (glucose + citric acid): Fold change ([3]; 10-15 mins vs baseline): 1.29; Control 1 (glucose only): Fold change ([3]; 10-15 mins vs baseline): 1.06
CCC(=O)O [Propanoic acid] | 22.58 | 31.75 | 17.79 | 11.46 | 15.89 | 8.19 |  |  |  |  |  | Control 2 (glucose + citric acid): Post-drink Concentration ([3]; time point 5-10 mins): 15.33 ppbv; Control 1 (glucose only): Post-drink Concentration ([3]; time point 5-10 mins): 17.14 ppbv; Control 2 (glucose + citric acid): Fold change ([3]; 5-10 mins vs baseline): 1.96; Control 1 (glucose only): Fold change ([3]; 5-10 mins vs baseline): 1.17; Fold change, 10 g ([4]; Average of all subjects): 7.1; Fold change, 25 g ([4]; Average of all subjects): 4.6; Fold change, 50 g ([4]; Average of all subjects): 7.9; Fold change, 75 g ([4]; Average of all subjects): 7.8; Fold change, Baseline ([4]; Average of all subjects): 1.1; Fold change, 10 g ([4]; Median of all subjects): 5.3; Fold change, 25 g ([4]; Median of all subjects): 4.3; Fold change, 50 g ([4]; Median of all subjects): 6.3; Fold change, 75 g ([4]; Median of all subjects): 9.9; Fold change, Baseline ([4]; Median of all subjects): 0.7
OC[C@H]1O[C@@H](O[C@H]2[C@H](O)[C@@H](O)C(O)O[C@@H]2CO)[C@H](O)[C@@H](O)[C@H]1O (some centres unmarked) [lactose] |  |  |  |  |  |  |  |  |  |  |  | time of maximal increase of butanoic acid in exhaled breath after sugar consumption [5]: 10 min

Reference: patent publication US20220221443A1, “BIOMARKER DETECTION FOR CANCER DIAGNOSIS AND PROGNOSIS” (IP2IPO Innovations Limited, priority 2019, published 2022)
